One substance from paper PMC10564113 can be followed below.

Sequences of proteins named here, by UniProt entry; tags and fusion partners are left off.
UniProt P0A988: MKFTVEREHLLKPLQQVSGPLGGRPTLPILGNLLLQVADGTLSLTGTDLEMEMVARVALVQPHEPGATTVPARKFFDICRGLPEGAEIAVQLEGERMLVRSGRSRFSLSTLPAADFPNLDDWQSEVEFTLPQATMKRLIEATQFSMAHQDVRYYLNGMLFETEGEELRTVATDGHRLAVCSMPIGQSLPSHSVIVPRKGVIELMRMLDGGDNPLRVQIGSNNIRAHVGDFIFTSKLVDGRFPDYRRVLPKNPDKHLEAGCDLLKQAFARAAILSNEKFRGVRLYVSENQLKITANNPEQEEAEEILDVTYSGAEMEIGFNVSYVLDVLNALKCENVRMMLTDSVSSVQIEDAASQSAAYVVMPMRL
UniProt P0A9A6: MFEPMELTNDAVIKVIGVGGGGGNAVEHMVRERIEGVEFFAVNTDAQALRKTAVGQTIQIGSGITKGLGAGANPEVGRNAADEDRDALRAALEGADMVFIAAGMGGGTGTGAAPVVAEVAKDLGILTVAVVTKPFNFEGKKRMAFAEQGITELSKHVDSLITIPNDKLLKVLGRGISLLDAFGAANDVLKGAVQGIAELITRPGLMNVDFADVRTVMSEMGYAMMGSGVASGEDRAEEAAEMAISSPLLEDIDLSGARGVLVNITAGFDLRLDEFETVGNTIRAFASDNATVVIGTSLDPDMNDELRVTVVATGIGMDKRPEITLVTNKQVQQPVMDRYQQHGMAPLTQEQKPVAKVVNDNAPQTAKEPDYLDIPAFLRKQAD

This test concerns the target His-tagged β-clamp (UniProt P0A988). The test can be described thus: affinity purification with mass spectrometry; His-tag purification on TALON metal affinity resin from extracts of E. coli BL21 overexpressing His-tagged β-clamp (control: His-tag only); 1 h at 4°C, 50 mM NaP pH 8, 300 mM NaCl, washes with 10 mM imidazole; on-resin trypsin digest, LC-MS/MS; three biological replicas.

Results are given in words; binding and its absence hold for the method and conditions named. In cells and extracts the contact can be indirect. A yes stands for co-enrichment or nearness to the bait. Other partners may have been found.

Consider FtsZ (from UniProt P0A9A6 1-383), for which the binding result is recorded as “binds”.
